From ChEMBL document CHEMBL4296183, “CO-ADD screening of NIH NCI Natural Product Set III” (2020)
The list shows a part of the results. Results with a measured potency or affinity are listed apart.

test system: Pseudomonas aeruginosa; details: Concentration 20 uM; ASSAY_TEST Inhibition of Bacterial Growth; detection method Absorption (OD600); MEDIA CAMHB; plate type 384well; NBS; CORNING #3640; time 18 hr

SMILES | Inhibition [%]
CC12C(=O)C=CCC1=CCC1C2CCC2(O)C(=O)OC3(C)C4CC5(C)C(COC16OC23C5C6=O)C(=O)O4 (stereo not given) | 11.11
COc1ccc2c(c1OC)CN1CCc3cc4c(cc3C1C2)OCO4 (stereo not given) [TETRAHYDROBERBERINE] | 8.62
CC1CCC2C(C)C(=O)OC3OC4(C)CCC1C32OO4 (stereo not given) | 14.6
COc1ccc2c3c([nH]c2c1)[C@H](C=C(C)C)N1C(=O)[C@@H]2CCCN2C(=O)[C@@H]1C3 [FUMITREMORGIN] | 5.98
COC1C(O)C(C)OC(OC2C(Oc3cccc4c(O)c5c(=O)oc6ccc(C)c7c(=O)oc(c34)c5c67)OC(C)C(O)C2O)C1O (stereo not given) | 4.96
COc1cccc2c1cc([N+](=O)[O-])c1c(C(=O)O)cc3c(c12)OCO3 [ARISTOLOCHIC ACID] | 7.59
C=C1C(=O)O[C@@H]2C[C@@H](C)[C@@H]3C=CC(=O)[C@@]3(C)[C@@H](O)[C@H]12 [HELENALIN] | 6.82
CCN1C[C@]2(COC)[C@H](O)C[C@H](OC)[C@]34C1[C@H]([C@H](OC)[C@H]23)[C@]1(OC(C)=O)[C@H]2[C@@H](OC(=O)c3ccccc3)[C@](O)(C[C@H]24)[C@@H](OC)[C@@H]1O | 6.99
CC(C)(O)C1C2OC(=O)C1C1(O)CC3OC34C(=O)OC2C14C (stereo not given) | 9.3
CC(=O)OC(C)(C)/C=C/C(=O)[C@](C)(O)[C@H]1[C@H](O)C[C@@]2(C)[C@@H]3CC=C4[C@@H](C=C(O)C(=O)C4(C)C)[C@]3(C)C(=O)C[C@]12C [CUCURBITACIN E] | 1.68
O=P1(N(CCCl)CCCl)NCCCO1 (stereo not given) [CYCLOPHOSPHAMIDE ANHYDROUS] | 15.65
CC1CCC2C(C)C3C(CC4C5CC=C6CC(OC7OC(CO)C(O)C(OC8OC(CO)C(O)C(O)C8O)C7OC7OC(C)C(O)C(O)C7O)CCC6(C)C5CCC43C)N2C1.Cl (stereo not given) | 1.35
COc1ccc(C(=O)O[C@H]2CC[C@@]3(C)[C@@H]4CC[C@H]5[C@]6(O)C[C@H](O)[C@@]7(O)[C@@H](CN8C[C@@H](C)CC[C@H]8[C@@]7(C)O)[C@]6(O)C[C@@]53OC24O)cc1OC | 11.38
C1CCC(NC2CCCCC2)CC1.COC1C(OC(=O)/C=C/C=C/C=C/C=C/C(=O)O)CCC2(CO2)C1C1(C)OC1CC=C(C)C (stereo not given) | 15.35
C=C1C(=O)OC2C1CCC(C)C1(O)C=CC(=O)C21C (stereo not given) | -0.11
CCCCCC(O)C1C(=O)OC(C)C(O)/C=C/C=C/C=C/C=C/C=C(\C)C(O)C(O)C(O)CC(O)CC(O)CC(O)CC(O)CC1O (stereo not given) | 9.17
CC[C@](C)(O)C(=O)O[C@H]1C(=O)O[C@@H]2C[C@H]3C(C)=C[C@H](O)[C@@H](O)[C@]3(C)[C@H]3[C@@]4(O)OC[C@]32[C@@H]1[C@@H](C)[C@H]4O | 10.88
OC1CN2CC[C@H](O)[C@@H]2C(O)[C@@H]1O (stereo not given in full) | 5.53
CC(=O)O[C@@H]1[C@@H](O)C2=C3[C@]4(C)[C@@H]1C(C)(C)C(=O)C[C@@H]4[C@]3(O)[C@H](OC(C)=O)[C@@]1(C[C@@H]1C)C2=O | 9.27
C=C1C(C)C2C(Cc3ccccc3)NC(=O)C23C(OC(C)=O)/C=C/C(C)(O)CC(C)C/C=C/C3C1O (stereo not given) | 0.72
CN1CCc2cc3c(cc2[C@H]1[C@@H]1OC(=O)c2c1ccc1c2OCO1)OCO3 [BICUCULLINE] | 17.91
COc1ccc2c(c1O)-c1c(OC)c(OC)cc3c1C(C2)N(C)CC3 (stereo not given) | 17.01
CO[C@@H]1[C@H](O)CC[C@]2(CO2)[C@H]1[C@@]1(C)O[C@@H]1CC=C(C)C | 6.36
CC[C@H]1CN2CCc3cc(OC)c(OC)cc3[C@@H]2C[C@@H]1C[C@H]1NCCc2c1[nH]c1ccc(O)cc21 [TUBULOSINE] | 10.54
COc1c2c(c(CC=C(C)C)c3oc(=O)c(-c4ccc(O)cc4)c(O)c13)OC(C)(C)C=C2 [LONCHOCARPIC ACID] | 8.58
C[C@H]1CCC/C=C/[C@@H]2C[C@H](O)C[C@H]2[C@H](O)/C=C/C(=O)O1 [BREFELDIN A] | 10.94
CCC/C=C/C=C/C(=O)OC1/C(=C/C(=O)OC)CC2CC(C(C)O)OC(=O)CC(O)CC3CC(OC(C)=O)C(C)(C)C(O)(CC4C/C(=C/C(=O)OC)CC(/C=C/C(C)(C)C1(O)O2)O4)O3 (stereo not given) | 12.17
CC[C@@]1(O)C(=O)OCc2c1cc1n(c2=O)Cc2cc3ccccc3nc2-1 [CAMPTOTHECIN] | 11.38
CC1OC(=O)C2CC3CCCCC3C(/C=C/C3CCCC(C)N3C)C12 (stereo not given) | 8.42
CC(O)CCC(=O)c1ccoc1 (stereo not given) | -0.58

Fetched by compound from the list above, two records:
SMILES | Inhibition [%]
COc1ccc(C(=O)O[C@H]2CC[C@@]3(C)[C@@H]4CC[C@H]5[C@]6(O)C[C@H](O)[C@@]7(O)[C@@H](CN8C[C@@H](C)CC[C@H]8[C@@]7(C)O)[C@]6(O)C[C@@]53OC24O)cc1OC | 11.38
CC(O)CCC(=O)c1ccoc1 (stereo not given) | -0.58
